According to publication PMC3171469, “Multiple ETS Family Proteins Regulate PF4 Gene Expression by Binding to the Same ETS Binding Site”:
No constants are given. Whether binding was seen depends on the method and setting. Some results given as binding are weak or reduced against the parent protein; the word gives no strength.

Amino acid sequences for entries named in this document (tags omitted).
UniProt Q06547: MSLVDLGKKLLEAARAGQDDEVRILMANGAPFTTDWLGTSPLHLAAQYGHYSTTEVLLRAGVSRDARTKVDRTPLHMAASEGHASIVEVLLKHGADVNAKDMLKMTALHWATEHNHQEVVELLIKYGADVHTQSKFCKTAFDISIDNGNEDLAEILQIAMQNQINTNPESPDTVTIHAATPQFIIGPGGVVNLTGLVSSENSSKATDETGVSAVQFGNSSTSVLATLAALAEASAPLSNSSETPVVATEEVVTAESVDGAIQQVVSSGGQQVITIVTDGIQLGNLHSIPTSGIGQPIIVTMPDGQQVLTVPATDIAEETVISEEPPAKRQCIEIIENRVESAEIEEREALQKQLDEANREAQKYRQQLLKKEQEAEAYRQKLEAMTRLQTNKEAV

Biological target: T1, GABPα (UniProt Q06546)
T1 sequence: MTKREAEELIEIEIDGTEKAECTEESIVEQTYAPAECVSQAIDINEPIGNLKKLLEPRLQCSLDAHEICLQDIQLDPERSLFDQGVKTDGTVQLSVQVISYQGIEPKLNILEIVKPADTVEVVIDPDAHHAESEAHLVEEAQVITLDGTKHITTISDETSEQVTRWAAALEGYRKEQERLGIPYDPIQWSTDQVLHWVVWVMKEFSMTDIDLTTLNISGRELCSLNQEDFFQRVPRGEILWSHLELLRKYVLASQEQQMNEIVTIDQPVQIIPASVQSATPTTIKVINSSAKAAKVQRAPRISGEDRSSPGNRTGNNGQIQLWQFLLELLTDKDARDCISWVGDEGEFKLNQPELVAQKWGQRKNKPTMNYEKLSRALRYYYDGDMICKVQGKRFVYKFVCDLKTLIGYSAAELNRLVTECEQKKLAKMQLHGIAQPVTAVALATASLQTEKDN
Assay: native gel or EMSA; in vitro translated GABPα, β and γ mixed with the 32P-labelled −51 ETS DNA probe; the protein complexes are seen on the DNA; binding buffer 2 mM HEPES-NaOH pH 7.9, 2% glycerol, 0.01 mM EDTA, 0.25 mM DTT, 5 mM KCl, 0.1 mg/ml BSA, poly dI-dC; 40 min at 4°C; 4% native polyacrylamide gel, 0.5× TBE; supershift with anti-GABP antibodies

## GABPβ (from UniProt Q06547 1-395)
  binding: binds
